Some of the results follow.
compound: Cc1cn(-c2cc(NC(=O)c3ccc(C)c(Nc4nccc(-c5cccnc5)n4)c3)cc(C(F)(F)F)c2)cn1 [nilotinib]; assay: log2 fold change, soluble protein after heating vs DMSO (PISA); higher = thermal stabilisation; K562 cells, 10 uM, 30 min; active = over 0.2 and 3.5 SD of the protein, either way, in both replicates (recomputed)
Outline: (§1)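 K562 cells at 2×10^6 cells/mL were given 10 μM compound for 30 min. Aliquots then went through 3 min of heating across 48°C-58°C, were pooled, and were extracted in PBS with 0.5% NP-40 at 4°C, and the supernatant after 21,000xg for 90 min was quantified by TMTpro 16plex LC-MS/MS with channel sums equalised. Thermal stability relative to control samples, from duplicates, is given as log2 fold change.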

Chains of the proteins cited; added tags and fusions are not shown. Lines headed by an entry give the natural chain unless they say otherwise; changes in a name come on top.
UniProt P42126: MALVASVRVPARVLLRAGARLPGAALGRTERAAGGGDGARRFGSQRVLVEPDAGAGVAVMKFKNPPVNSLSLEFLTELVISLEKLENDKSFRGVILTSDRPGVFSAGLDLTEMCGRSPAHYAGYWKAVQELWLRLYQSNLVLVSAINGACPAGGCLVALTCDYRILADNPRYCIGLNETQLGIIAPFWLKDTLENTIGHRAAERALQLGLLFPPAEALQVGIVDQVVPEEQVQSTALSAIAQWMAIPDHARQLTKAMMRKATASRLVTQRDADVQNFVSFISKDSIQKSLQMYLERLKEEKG
UniProt Q9UDY4: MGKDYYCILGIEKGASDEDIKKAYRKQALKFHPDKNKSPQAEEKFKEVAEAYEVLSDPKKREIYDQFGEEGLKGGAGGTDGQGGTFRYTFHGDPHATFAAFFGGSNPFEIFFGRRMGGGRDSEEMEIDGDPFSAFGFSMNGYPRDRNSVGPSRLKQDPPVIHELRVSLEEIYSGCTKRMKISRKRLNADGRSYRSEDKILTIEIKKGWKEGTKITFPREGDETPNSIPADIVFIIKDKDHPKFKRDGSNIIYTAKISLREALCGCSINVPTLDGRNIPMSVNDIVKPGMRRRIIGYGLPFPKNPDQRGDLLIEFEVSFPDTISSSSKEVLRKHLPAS
UniProt Q9NVM6: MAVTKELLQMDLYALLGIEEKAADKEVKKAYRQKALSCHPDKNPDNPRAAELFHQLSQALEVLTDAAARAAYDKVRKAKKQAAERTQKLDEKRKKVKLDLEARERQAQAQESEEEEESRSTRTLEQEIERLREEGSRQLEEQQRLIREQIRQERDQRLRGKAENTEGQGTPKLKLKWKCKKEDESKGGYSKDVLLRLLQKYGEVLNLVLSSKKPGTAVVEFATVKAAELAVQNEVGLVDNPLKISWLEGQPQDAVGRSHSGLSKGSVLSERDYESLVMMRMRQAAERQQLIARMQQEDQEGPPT
UniProt Q13217: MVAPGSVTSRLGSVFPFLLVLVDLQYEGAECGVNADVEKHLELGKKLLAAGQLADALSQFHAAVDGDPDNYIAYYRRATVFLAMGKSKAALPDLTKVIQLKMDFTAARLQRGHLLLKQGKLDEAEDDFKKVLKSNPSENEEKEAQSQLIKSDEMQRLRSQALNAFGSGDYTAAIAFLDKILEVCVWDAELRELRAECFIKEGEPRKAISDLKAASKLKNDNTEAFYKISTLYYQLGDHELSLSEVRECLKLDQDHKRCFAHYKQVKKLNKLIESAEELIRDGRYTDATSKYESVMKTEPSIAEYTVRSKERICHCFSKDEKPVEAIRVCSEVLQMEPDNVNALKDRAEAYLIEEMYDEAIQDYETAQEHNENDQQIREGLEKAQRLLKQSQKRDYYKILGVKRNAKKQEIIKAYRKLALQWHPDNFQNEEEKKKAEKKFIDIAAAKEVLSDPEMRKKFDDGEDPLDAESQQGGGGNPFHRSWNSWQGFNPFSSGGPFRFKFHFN
UniProt O60869: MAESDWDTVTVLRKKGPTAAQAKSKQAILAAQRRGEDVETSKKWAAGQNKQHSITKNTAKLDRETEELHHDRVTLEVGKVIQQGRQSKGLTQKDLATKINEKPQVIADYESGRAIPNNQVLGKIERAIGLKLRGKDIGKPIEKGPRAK
UniProt Q9NVH1: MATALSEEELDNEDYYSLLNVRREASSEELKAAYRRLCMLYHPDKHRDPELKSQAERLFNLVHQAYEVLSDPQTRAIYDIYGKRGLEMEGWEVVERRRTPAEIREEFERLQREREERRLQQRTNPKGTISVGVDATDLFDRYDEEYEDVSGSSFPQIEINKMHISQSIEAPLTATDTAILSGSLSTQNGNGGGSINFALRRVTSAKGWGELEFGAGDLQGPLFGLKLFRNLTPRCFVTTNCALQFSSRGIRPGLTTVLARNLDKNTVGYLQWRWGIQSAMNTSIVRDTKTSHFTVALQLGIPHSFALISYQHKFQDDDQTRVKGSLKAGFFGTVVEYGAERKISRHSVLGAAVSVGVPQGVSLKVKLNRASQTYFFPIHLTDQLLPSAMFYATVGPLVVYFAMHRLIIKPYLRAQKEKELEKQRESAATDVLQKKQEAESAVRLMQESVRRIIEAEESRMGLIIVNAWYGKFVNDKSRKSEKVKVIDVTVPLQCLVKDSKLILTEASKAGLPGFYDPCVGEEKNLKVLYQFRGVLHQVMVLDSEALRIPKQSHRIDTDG
UniProt Q9BTV6: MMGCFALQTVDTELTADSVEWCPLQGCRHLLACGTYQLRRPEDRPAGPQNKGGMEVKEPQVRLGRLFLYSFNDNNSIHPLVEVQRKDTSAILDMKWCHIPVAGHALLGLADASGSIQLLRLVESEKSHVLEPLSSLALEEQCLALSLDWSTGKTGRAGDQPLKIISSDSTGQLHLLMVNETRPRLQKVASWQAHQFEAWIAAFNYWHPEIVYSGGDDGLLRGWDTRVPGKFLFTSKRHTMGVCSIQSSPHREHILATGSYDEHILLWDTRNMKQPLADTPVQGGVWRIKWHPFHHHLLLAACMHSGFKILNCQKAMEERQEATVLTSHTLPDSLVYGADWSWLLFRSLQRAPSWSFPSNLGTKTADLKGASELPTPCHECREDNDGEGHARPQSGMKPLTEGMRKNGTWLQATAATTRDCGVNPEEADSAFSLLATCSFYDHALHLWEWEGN
UniProt Q96EY1: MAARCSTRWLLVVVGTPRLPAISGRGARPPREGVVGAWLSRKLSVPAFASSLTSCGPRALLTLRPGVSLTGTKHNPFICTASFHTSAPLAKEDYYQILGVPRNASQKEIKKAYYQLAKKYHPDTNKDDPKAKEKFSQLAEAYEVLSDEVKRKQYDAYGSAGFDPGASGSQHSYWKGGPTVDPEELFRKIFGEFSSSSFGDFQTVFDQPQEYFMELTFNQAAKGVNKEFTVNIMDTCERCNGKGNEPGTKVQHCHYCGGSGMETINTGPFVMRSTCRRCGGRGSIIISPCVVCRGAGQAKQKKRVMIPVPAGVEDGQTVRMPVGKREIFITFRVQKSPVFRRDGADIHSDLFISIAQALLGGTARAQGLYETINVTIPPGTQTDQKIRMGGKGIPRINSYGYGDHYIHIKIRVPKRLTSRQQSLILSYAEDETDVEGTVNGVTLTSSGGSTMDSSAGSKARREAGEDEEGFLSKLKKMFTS
UniProt Q9BVJ7: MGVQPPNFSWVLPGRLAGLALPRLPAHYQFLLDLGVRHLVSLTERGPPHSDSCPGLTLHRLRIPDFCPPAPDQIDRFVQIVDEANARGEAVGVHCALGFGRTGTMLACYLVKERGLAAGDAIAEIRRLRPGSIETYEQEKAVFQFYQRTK
UniProt Q01658: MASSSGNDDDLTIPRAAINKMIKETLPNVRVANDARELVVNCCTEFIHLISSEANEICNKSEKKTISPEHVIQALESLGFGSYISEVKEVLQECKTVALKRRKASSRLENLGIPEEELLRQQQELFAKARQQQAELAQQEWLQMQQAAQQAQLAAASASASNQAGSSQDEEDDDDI
UniProt O00559: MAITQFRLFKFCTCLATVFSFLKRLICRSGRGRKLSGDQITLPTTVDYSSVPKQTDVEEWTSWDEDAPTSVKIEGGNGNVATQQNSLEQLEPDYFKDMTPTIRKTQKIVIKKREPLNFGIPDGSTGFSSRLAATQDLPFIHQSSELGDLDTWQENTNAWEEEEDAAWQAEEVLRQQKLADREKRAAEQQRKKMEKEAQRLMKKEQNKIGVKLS
UniProt O75937: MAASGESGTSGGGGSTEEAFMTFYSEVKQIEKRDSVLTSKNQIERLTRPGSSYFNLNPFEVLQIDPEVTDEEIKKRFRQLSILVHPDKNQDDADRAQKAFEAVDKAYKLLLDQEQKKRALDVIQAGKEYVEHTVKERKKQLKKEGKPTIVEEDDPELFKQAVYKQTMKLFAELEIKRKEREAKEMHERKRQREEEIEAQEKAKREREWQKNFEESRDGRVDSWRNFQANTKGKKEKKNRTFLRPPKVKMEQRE
UniProt P33316: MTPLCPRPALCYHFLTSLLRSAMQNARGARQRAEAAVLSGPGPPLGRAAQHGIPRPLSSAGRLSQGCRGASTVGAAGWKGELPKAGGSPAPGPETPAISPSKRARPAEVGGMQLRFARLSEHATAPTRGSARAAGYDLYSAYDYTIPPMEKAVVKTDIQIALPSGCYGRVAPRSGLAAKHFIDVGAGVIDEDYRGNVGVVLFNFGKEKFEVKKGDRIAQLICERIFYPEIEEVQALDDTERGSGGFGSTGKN
UniProt Q14919: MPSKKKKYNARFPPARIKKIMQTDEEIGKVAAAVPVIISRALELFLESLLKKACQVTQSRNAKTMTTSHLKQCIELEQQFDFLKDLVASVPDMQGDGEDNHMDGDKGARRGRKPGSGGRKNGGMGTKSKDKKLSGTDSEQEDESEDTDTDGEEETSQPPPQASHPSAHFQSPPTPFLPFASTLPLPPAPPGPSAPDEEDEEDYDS
UniProt Q9UKB3: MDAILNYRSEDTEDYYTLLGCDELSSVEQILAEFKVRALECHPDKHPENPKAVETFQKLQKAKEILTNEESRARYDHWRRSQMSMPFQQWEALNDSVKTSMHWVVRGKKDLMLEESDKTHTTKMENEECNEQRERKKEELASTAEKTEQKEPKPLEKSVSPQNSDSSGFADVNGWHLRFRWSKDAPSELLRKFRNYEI
UniProt Q9BZG8: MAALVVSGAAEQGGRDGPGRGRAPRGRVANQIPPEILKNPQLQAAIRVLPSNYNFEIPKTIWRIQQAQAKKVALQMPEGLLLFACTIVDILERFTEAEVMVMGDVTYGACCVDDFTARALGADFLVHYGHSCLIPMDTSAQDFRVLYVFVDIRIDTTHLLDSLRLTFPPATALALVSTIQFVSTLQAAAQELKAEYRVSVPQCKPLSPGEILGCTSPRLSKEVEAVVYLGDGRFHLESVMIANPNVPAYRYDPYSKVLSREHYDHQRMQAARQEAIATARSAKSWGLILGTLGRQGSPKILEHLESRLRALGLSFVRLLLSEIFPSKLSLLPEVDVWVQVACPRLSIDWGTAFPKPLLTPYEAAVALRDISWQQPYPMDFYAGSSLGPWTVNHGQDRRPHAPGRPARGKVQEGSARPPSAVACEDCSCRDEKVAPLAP
UniProt P30084: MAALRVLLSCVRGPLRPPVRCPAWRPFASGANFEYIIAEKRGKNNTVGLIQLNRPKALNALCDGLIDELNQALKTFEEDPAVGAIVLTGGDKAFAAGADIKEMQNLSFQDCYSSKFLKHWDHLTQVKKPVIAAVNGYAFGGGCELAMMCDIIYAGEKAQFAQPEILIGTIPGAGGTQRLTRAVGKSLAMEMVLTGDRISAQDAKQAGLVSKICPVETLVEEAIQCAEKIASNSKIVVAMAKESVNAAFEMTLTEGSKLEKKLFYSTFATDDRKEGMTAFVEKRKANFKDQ
UniProt Q8WWZ3: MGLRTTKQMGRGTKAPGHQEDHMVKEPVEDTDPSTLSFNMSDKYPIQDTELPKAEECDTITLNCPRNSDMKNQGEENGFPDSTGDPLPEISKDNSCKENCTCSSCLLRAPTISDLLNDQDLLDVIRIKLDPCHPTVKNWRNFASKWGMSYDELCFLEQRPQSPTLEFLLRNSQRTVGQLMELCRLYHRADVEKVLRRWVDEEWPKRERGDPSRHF
UniProt Q8TEA8: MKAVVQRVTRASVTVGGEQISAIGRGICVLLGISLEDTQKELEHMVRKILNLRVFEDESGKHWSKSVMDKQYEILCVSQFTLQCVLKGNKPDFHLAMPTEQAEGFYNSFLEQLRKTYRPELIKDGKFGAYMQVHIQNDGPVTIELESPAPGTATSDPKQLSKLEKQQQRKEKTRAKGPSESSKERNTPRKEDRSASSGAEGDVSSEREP
UniProt Q02487, whole entry, looked up: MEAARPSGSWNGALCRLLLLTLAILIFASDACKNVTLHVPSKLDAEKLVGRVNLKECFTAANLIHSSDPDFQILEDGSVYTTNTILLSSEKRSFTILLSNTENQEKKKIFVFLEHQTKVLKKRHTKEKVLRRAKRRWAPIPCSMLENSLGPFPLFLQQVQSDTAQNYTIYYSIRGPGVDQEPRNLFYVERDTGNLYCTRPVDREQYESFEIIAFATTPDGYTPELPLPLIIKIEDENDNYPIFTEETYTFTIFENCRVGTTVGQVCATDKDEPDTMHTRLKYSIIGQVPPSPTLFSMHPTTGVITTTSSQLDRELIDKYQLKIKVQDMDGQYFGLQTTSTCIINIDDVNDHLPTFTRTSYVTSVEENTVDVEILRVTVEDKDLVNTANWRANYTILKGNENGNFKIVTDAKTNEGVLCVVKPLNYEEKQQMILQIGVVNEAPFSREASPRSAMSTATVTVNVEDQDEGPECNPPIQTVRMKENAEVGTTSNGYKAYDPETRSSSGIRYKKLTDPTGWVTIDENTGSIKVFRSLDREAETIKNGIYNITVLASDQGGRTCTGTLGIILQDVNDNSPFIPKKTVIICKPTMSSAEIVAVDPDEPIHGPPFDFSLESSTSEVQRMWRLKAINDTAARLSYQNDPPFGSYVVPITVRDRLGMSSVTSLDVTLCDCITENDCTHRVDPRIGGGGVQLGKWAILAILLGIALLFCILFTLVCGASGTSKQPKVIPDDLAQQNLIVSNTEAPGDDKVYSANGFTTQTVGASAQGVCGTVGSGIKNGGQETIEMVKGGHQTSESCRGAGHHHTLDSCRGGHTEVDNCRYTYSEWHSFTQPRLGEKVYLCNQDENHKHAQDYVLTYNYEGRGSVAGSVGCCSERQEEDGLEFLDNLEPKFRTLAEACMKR

log2 fold change, inactive:
DNAJC9 (UniProt Q8WXX5) -0.007
ECI1 (UniProt P42126) -0.008
ECE1 (UniProt P42892) -0.06
DNAJB4 (UniProt Q9UDY4) -0.035
DNAJC17 (UniProt Q9NVM6) 0.027
DPH2 (UniProt Q9BQC3) -0.026
EDEM3 (UniProt Q9BZQ6) 0.021
DSTN (UniProt P60981) 0.077
DNAJC3 (UniProt Q13217) 0.053
DOCK11 (UniProt Q5JSL3) -0.003
DSG2 (UniProt Q14126) 0.062
EDF1 (UniProt O60869) -0.046
DNAJC11 (UniProt Q9NVH1) 0.017
DPH7 (UniProt Q9BTV6) 0.018
DNAJA3 (UniProt Q96EY1) -0.08
DUSP23 (UniProt Q9BVJ7) 0.041
DST (UniProt Q03001) -0.241
DR1 (UniProt Q01658) -0.001
EBAG9 isoform 2 (UniProt O00559) 0.057
DNAJC8 (UniProt O75937) -0.019
DNAJB11 (UniProt Q9UBS4) 0.005
DUT (UniProt P33316) -0.01
DTL (UniProt Q9NZJ0) 0.002
DRAP1 isoform 2 (UniProt Q14919) -0.045
DNAJC12 (UniProt Q9UKB3) -0.005
DNAJC10 (UniProt Q8IXB1) -0.008
DPH6 (UniProt Q7L8W6) -0.059
DPH1 (UniProt Q9BZG8) -0.03
DPP7 (UniProt Q9UHL4) 0.004
ECHS1 (UniProt P30084) -0.015
EDARADD (UniProt Q8WWZ3) 0.051
DTD1 (UniProt Q8TEA8) -0.003
DSC2 (UniProt Q02487) 0.01

compound: Cc1nc(Nc2n[nH]c3c2CN(C(=O)N[C@H](CN(C)C)c2ccccc2)C3(C)C)c2sccc2n1; assay: as above
Outline: as §1

log2 fold change, inactive:
DNAJC9 (UniProt Q8WXX5) -0.047
ECI1 (UniProt P42126) 0.031
ECE1 (UniProt P42892) -0.059
DNAJB4 (UniProt Q9UDY4) -0.044
DNAJC17 (UniProt Q9NVM6) -0.043
DPH2 (UniProt Q9BQC3) 0.008
EDEM3 (UniProt Q9BZQ6) 0.037
DSTN (UniProt P60981) -0.022
DNAJC3 (UniProt Q13217) -0.002
DOCK11 (UniProt Q5JSL3) 0.021
DSG2 (UniProt Q14126) -0.088
EDF1 (UniProt O60869) 0.031
DNAJC11 (UniProt Q9NVH1) -0.005
DPH7 (UniProt Q9BTV6) 0.001
DNAJA3 (UniProt Q96EY1) -0.001
DUSP23 (UniProt Q9BVJ7) -0.02
DST (UniProt Q03001) -0.072
DR1 (UniProt Q01658) 0.03
EBAG9 isoform 2 (UniProt O00559) 0.006
DNAJC8 (UniProt O75937) -0.032
DNAJB11 (UniProt Q9UBS4) 0.018
DUT (UniProt P33316) 0.081
DTL (UniProt Q9NZJ0) 0.036
DRAP1 isoform 2 (UniProt Q14919) -0.014
DNAJC12 (UniProt Q9UKB3) 0.015
DNAJC10 (UniProt Q8IXB1) 0.052
DPH6 (UniProt Q7L8W6) -0.008
DPH1 (UniProt Q9BZG8) -0.014
DPP7 (UniProt Q9UHL4) -0.02
ECHS1 (UniProt P30084) 0.008
EDARADD (UniProt Q8WWZ3) -0.022
DTD1 (UniProt Q8TEA8) -0.012
DSC2 (UniProt Q02487) -0.073

compound: Cc1nc(Nc2ncc(C(=O)Nc3c(C)cccc3Cl)s2)cc(N2CCN(CCO)CC2)n1 [dasatinib]; assay: as above
Outline: as §1

log2 fold change, inactive:
DNAJC9 (UniProt Q8WXX5) 0.037
ECI1 (UniProt P42126) 0.011
ECE1 (UniProt P42892) -0.068
DNAJB4 (UniProt Q9UDY4) -0.044
DNAJC17 (UniProt Q9NVM6) -0.11
DPH2 (UniProt Q9BQC3) -0.014
EDEM3 (UniProt Q9BZQ6) 0.044
DSTN (UniProt P60981) 0.023
DNAJC3 (UniProt Q13217) 0.06
DOCK11 (UniProt Q5JSL3) -0.151
DSG2 (UniProt Q14126) 0.017
EDF1 (UniProt O60869) 0.062
DNAJC11 (UniProt Q9NVH1) -0.067
DPH7 (UniProt Q9BTV6) 0.037
DNAJA3 (UniProt Q96EY1) -0.048
DUSP23 (UniProt Q9BVJ7) 0.025
DST (UniProt Q03001) 0.048
DR1 (UniProt Q01658) 0.052
EBAG9 isoform 2 (UniProt O00559) 0.03
DNAJC8 (UniProt O75937) -0.07
DNAJB11 (UniProt Q9UBS4) 0.01
DUT (UniProt P33316) -0.047
DTL (UniProt Q9NZJ0) -0.003
DRAP1 isoform 2 (UniProt Q14919) -0.004
DNAJC12 (UniProt Q9UKB3) 0.021
DNAJC10 (UniProt Q8IXB1) 0.014
DPH6 (UniProt Q7L8W6) -0.15
DPH1 (UniProt Q9BZG8) -0.032
DPP7 (UniProt Q9UHL4) 0.063
ECHS1 (UniProt P30084) -0.074
EDARADD (UniProt Q8WWZ3) -0.032
DTD1 (UniProt Q8TEA8) 0.01
DSC2 (UniProt Q02487) -0.006

Source: the supplement of paper PMC10849652
